# Source: article PMC4657622
# Protein sequences, listed by entry. Tags and fused reporters are not part of them.
# UniProt Q08024: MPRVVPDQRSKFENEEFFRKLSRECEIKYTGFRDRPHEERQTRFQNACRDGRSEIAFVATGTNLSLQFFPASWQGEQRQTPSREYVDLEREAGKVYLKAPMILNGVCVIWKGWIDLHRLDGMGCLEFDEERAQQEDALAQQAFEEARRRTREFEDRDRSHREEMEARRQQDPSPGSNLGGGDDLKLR
# UniProt Q03347: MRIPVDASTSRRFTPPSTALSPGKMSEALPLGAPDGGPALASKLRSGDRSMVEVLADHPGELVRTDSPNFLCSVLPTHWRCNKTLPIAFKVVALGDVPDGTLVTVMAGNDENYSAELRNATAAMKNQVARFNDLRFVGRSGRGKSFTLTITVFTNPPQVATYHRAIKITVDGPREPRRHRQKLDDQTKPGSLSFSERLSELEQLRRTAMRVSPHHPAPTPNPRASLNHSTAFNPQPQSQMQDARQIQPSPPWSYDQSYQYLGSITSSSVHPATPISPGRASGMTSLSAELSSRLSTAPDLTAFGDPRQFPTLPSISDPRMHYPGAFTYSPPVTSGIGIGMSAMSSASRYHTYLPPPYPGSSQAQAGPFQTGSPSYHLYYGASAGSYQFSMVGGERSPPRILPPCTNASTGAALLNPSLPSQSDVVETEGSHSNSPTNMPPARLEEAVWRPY
# These are yes or no findings as the source states them, for the method shown. Binding seen in cells or lysates may run through a third protein. Some entries that bind do so weakly or less than the wild type.
# Target: N-terminally Flag-tagged CBFβ protein (Flag-CBFβ) (mouse (endogenous locus, knockin)) (UniProt Q08024)
# Assay: co-IP; anti-Flag M2 affinity gel on clarified lysates of acutely dissected DRGs from P0 Cbfb^Flag/Flag and wildtype mice; lysis buffer 50 mM Tris HCl, 150 mM NaCl, 1 mM EDTA, 1% Triton X-100, pH 7.5; blots with Runx1 and CBFβ antibodies
substance,measurement,value
Runx1 (from UniProt Q03347 1-451),binding,binds
